Experimental findings from publication doi:10.1101/2025.07.01.662281 are described below.

No constants are given. Whether binding was seen depends on the method and setting. Binding seen in cells or lysates may run through a third protein. Some binding calls cover weakened binding; strength is not graded here. Where a sequence is shown, tags or fusion partners need not be part of it.

In assay [1] the target is T1, common gamma chain (γc), endogenous in CD8+ T cells (mouse (endogenous in CD8+ T cells)) (UniProt P34902).
T1 sequence: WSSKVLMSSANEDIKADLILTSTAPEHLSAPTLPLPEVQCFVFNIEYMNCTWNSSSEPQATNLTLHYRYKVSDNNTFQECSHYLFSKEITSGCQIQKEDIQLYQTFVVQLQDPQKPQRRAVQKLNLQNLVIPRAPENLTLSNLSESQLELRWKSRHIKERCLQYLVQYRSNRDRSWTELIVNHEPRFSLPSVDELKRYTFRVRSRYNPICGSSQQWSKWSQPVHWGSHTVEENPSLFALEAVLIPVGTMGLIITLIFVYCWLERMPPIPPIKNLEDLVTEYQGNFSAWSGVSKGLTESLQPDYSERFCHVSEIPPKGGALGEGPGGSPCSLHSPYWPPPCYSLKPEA
The assay is described as follows: co-IP.

The target of a further assay is T2, Tmem127-eGFP (HEK293T) (UniProt Q8BGP5).
T2 sequence: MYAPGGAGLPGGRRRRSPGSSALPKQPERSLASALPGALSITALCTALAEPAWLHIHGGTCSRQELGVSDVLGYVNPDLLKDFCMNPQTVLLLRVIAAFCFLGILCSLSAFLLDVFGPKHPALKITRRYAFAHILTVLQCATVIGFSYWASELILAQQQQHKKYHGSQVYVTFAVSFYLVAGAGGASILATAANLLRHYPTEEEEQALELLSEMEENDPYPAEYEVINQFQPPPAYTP
The assay is described as follows: co-IP.

B1: Tmem127-eGFP (CD8+ T cells) (protein, UniProt Q8BGP5 1-238)
chain: T2 sequence
B1: in assay [1], the binding entry is “binds”.

B2: common gamma chain (γc), overexpressed in HEK293T (receptor, UniProt P34902 23-369)
chain: T1 sequence
Consider B2, for which the binding result with Tmem127-eGFP (HEK293T) was “binds”.
